## Primary screen of a compound library

Source: ChEMBL document CHEMBL3988442, “University of Dundee, Small-Polar-MMV Screening Library” (2021).

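Whole-cell assay for inhibitors of Mycobacterium tuberculosis growth, labelled Cornell in the record; the read-out is not stated. The concentration is filed as 10 mM, unlikely as a test dose, so the dose is not known. The record gives no direction; compounds strong in two other growth screens of this library score well above the rest, so higher reads as stronger inhibition. Of about 53,000 compounds tested this way, about 900 (1.7%) reached 50% or more in at least one test.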

Each number is a percent effect as filed.
How 0% and 100% were set is not recorded. Most values in the screen are low, and negative values occur.
Compounds were drawn at random from those tested, without regard to their results.

| structure | effect |
|---|---|
| `O=C(c1cccnc1N1CCCCC1)N1CCCC(n2cccn2)C1` (stereo not given) | -7.606 |
| `Cc1ccc(CNC(=O)NCCCn2nc3ccccn3c2=O)s1` | -15.94 |
| `N[C@H]1CN(S(=O)(=O)N2CCCCCC2)C[C@@H]1c1ccccc1` | 11.3 |
| `O=C(NCc1cccnc1)N1CCSCC1CCO` (stereo not given) | -24.17 |
| `Cc1nnc(-c2cccc(C#N)c2)n1C1CCN(C2CC2)C1=O` (stereo not given) | -16.04 |
| `O=C(c1cncc(NCC2COc3ccccc3C2)n1)N1CCOCC1` (stereo not given) | -13.98 |
| `Cc1noc(C)c1CN1CCn2c(CN3CCN(C)CC3)cnc2C1.O=C(O)C(F)(F)F.O=C(O)C(F)(F)F.O=C(O)C(F)(F)F` | 4.932 |
| `Cn1c(C(=O)N(CC(N)=O)C2CCCC2)cc(Cl)c1Cl` | 12.52 |
| `Cc1cccc(NC(=O)N2CCC(CO)(Nc3ccccc3)CC2)c1` | 13.03 |
| `CC(C)C1CN(S(=O)(=O)c2cccc(C#N)c2)CCS1` (stereo not given) | 29.18 |
| `Cn1cc(C(=O)NCCCN2CCCCCC2=O)c(-c2cccnc2)n1` | -14.78 |
| `O=C(O)C(F)(F)F.[H][C@@]12COC[C@]1(CN(C)C)CN(C(=O)c1cc(C)oc1C)C2` | 23.58 |
| `CN1CC(=O)N(c2cnn(C)c2)CC12CCN(CC1CC1)C2.O=C(O)C(F)(F)F.O=C(O)C(F)(F)F` (stereo not given) | 1.762 |
| `Cc1cc(S(C)(=O)=O)c(C)c(S(=O)(=O)NCC2CCCO2)c1` (stereo not given) | -22.7 |
| `COC(=O)N1CCC(NC(=O)c2cc(S(N)(=O)=O)ccc2C)CC1` | -4.967 |
| `Cc1nc(C)n(CC2CCCN2Cc2cccc3c2OCCO3)n1` (stereo not given) | -6.241 |
| `O=C(c1cncs1)N1CCOC(c2cc(CCO)[nH]n2)C1` (stereo not given) | 2.844 |
| `CC(C)c1cc(C2CCCN2C(=O)c2cn3ccsc3n2)no1` (stereo not given) | 31.59 |
| `COCC(c1ccccn1)N(C)C(=O)c1cc(-c2cccn2C)n[nH]1` (stereo not given) | -16.94 |
| `CN1CCN([C@@H]2CCN(C3CCOC3)[C@H]2Cc2cnn(C)c2)CC1.O=C(O)C(F)(F)F.O=C(O)C(F)(F)F.O=C(O)C(F)(F)F` (stereo not given in full) | -4.843 |
| `O=C(NCCCN1CCc2ccccc2C1)c1ccccc1Br` | -16.22 |
| `CC(C)NC(=O)NCc1cc(-c2ccco2)n(CC(F)(F)F)n1` | -13.49 |
| `O=C(O)C(F)(F)F.O=C(c1ccc2[nH]ccc2c1)N1Cc2nc(CN3CCCCC3)oc2C1` | 37.92 |
| `CNC(=O)NC(C)c1nc(-c2ccc(Br)cc2)no1` (stereo not given) | 2.809 |
| `N#CCCN(Cc1cccnc1)C(=O)Cc1ccc(-n2cnnn2)cc1` | -30.39 |
| `O=C(c1ccco1)N1CCc2ncc(CN3CCOCC3)n2CC1` | -0.2569 |
| `Clc1cccc(-n2cnnn2)c1N1CCCCC1` | -36.57 |
| `NC(=O)N1CCCC(C(=O)NCCOc2ccc(F)cc2F)C1` (stereo not given) | -14.01 |
| `c1cncc(N2CCCn3nnc(CN4CCOCC4)c3C2)c1` | 3.848 |
| `O=C(O)C(F)(F)F.[H][C@@]12CCN(c3cnccn3)C[C@]1([H])CN(C(=O)CC(C)C)C2` | 11.89 |
| `O=C(NC1CCCN(c2ccccc2Cl)C1)c1ccc(=O)[nH]n1` (stereo not given) | 21.91 |
| `CCn1ccnc1CN1CCN(C(C)C(=O)N2CCCCCC2)CC1` (stereo not given) | 6.025 |
| `O=C(NCCc1[nH]nc2c1CCCC2)C1CCCN(Cc2ccco2)C1` (stereo not given) | 2.662 |
| `O=C(O)c1ccc(F)c(S(=O)(=O)Nc2c(F)cccc2-n2cccn2)c1` | 19.83 |
| `NCc1ccnc(Oc2ccccc2)c1` | 7.866 |
| `Cc1nc2cc(-c3nccn3C)nn2c(N2CCCC(O)C2)c1C.Cl` (stereo not given) | 4.262 |
| `CN(C)Cc1nnc(C2CCCN(c3nccc4ccccc34)C2)n1C` (stereo not given) | 17.92 |
| `CNC(=O)C1Cn2ccnc2C2(CCN(c3ccc(C)nn3)CC2)O1` (stereo not given) | 10.38 |
| `Cc1noc(C)c1CC(=O)NCCN1CCN(S(C)(=O)=O)CC1` | 17.96 |
| `O=C(NCc1ccc2c(c1)OCO2)c1ccc(N2CCCCC2)nn1` | -4.83 |
| `CCS(=O)(=O)N(C)C1CCN(C(=O)c2cc(C)cc(C)c2)CC1` | -5.852 |
| `[H][C@@]12C[C@H](C(=O)N3CCOCC3)[C@@]([H])(CN(S(=O)(=O)CCC)C1)O2` | -7.868 |
| `COc1ccc2c(c1)c(C(=O)Nc1cc(C)n(C)n1)cn2C(C)C` | 37.85 |
| `CN(CCC#N)C(=O)CN1CCC(c2cc3ccccc3[nH]2)CC1` | -56.86 |
| `CN(CCO)CC1COCCN1C(=O)C1(c2cccs2)CCCC1.O=CO` (stereo not given) | 6.824 |
| `Cc1ccnc(SCC(=O)Nc2csc3nc(=O)c(C)nn23)n1` | -12.9 |
| `CC(C)[C@@H]1CN(CCCOc2ccc(F)cc2)C[C@H]1NS(C)(=O)=O` | 36.97 |
| `CC(C)c1nc(C2CCCN(C(=O)CN3CCN(C)CC3)C2)no1` (stereo not given) | -3.902 |
| `O=C(O)C(F)(F)F.[H][C@@]12CCN(C(=O)c3cocn3)C[C@]1(COc1ncccc1F)CCO2` | 9.411 |
| `COCCNc1cc(C2CCCNC2)ccn1.Cl` (stereo not given) | 15.7 |
| `CC1=NN(c2ccc(C(=O)OCCNC(=O)c3ccncc3)cc2)CC1` | -8.864 |
| `CCCn1nccc1S(=O)(=O)N1CCC2(CCCN(C(C)C)C2=O)C1` (stereo not given) | -12.65 |
| `NC(=O)C1CCCN1CCCc1ccc(Cl)cc1` (stereo not given) | -3.785 |
| `O=C(O)C(F)(F)F.[H][C@@]12CCC(=O)N(c3cnn(C)c3)[C@]1([H])CCN2C(=O)c1cscn1` | 15.97 |
| `CC(=O)NCC(=O)N1CCC(C2CCN(Cc3ccc(Cl)cc3)C2)CC1` (stereo not given) | 15.65 |
| `CC(C)NCC1OCCc2cn(C)nc21.O=C(O)C(F)(F)F` (stereo not given) | 8.96 |
| `CC(C)(C)NC(=O)N1CCN2C(=O)OCC2C1` (stereo not given) | 3.105 |
| `CN(C)C(=O)c1ccc(-c2cscn2)cc1` | -3.746 |
| `CC(C)c1nc(CN2CCOCC2)cs1` | -37.85 |
| `CC(C)n1ccc(-c2cc(C(=O)NC3CC3)c3ccccn23)n1` | -20.13 |
| `Cc1cc(N2CCC(NC(=O)CCc3ccco3)CC2)nc(C)n1` | 27.17 |
| `CC(SCCS(C)(=O)=O)c1nc(Cc2ccc(F)cc2)no1` (stereo not given) | -16.97 |
| `CCCc1cc(N2CCCC2Cn2nc(C)cc2C)n2ncnc2n1` (stereo not given) | 15.5 |
| `O=C(O)C(F)(F)F.[H][C@@]12CCCO[C@]1([H])[C@@H](OCC(=O)N(C)C)CN2Cc1c(C)noc1C` | -37.81 |
| `O=C(O)C(F)(F)F.O=C(O)C(F)(F)F.[H][C@@]12C[C@@H](OCc3ccccc3)CN1CCN(c1ncccn1)C2` | 16.04 |
| `Cn1ccnc1CN1CCN(CC(=O)NCc2ccccc2F)CC1` | 10.41 |
| `CC(=O)Nc1ccc(CN2CCOC2=O)cc1` | -61.58 |
| `CC(C)c1ncc2c(n1)CN(Cc1nc(-c3ccccn3)no1)CC2` | 12.75 |
| `CC(C)c1nnc2n1CC(CNC/C=C/c1ccccc1)CC2` (stereo not given) | 42.53 |
| `[H][C@@]12CCN(C(=O)Cc3cccc(OC)c3)[C@]1([H])CCC(=O)N2CC` | 20.33 |
| `Cc1ccc(CN2CC[C@H](c3nc4cccc(C(N)=O)c4[nH]3)C2)cc1` | -35.52 |
| `CCOC(=O)NC(CNC(=O)c1ncccn1)CC(C)C` (stereo not given) | 10.81 |
| `[H][C@@]12CCC(=O)N(CCC3=CCCCC3)[C@]1([H])CCN(S(C)(=O)=O)C2` | -22.53 |
| `COc1ccc(CCC(=O)NCCN2CCC(c3cccs3)CC2)cc1` | 22.94 |
| `Cc1cccc(-c2noc(CN3CCC(N4CCNC4=O)CC3)n2)c1` | 15.48 |
| `Cc1cc(C)nc(NC(=O)NCCCSc2nncn2C)n1` | 0.9206 |
| `COc1ccc(COCC(O)CNC(=O)c2ccncc2)cc1` (stereo not given) | -9.492 |
| `COc1ccc(CN2CCN(c3ncc(Cl)cn3)CC2)cc1` | 15.9 |
| `Cn1ccnc1-c1nc(N2CCCCC2)ncc1-c1ccccc1F` | 56.75 |

Repeated from the top, 8 entries:

{"structure": "O=C(c1cccnc1N1CCCCC1)N1CCCC(n2cccn2)C1", "stereo": "stereo not given", "effect": -7.606}
{"structure": "Cc1ccc(CNC(=O)NCCCn2nc3ccccn3c2=O)s1", "effect": -15.94}
{"structure": "N[C@H]1CN(S(=O)(=O)N2CCCCCC2)C[C@@H]1c1ccccc1", "effect": 11.3}
{"structure": "O=C(NCc1cccnc1)N1CCSCC1CCO", "stereo": "stereo not given", "effect": -24.17}
{"structure": "Cc1nnc(-c2cccc(C#N)c2)n1C1CCN(C2CC2)C1=O", "stereo": "stereo not given", "effect": -16.04}
{"structure": "O=C(c1cncc(NCC2COc3ccccc3C2)n1)N1CCOCC1", "stereo": "stereo not given", "effect": -13.98}
{"structure": "Cc1noc(C)c1CN1CCn2c(CN3CCN(C)CC3)cnc2C1.O=C(O)C(F)(F)F.O=C(O)C(F)(F)F.O=C(O)C(F)(F)F", "effect": 4.932}
{"structure": "Cn1c(C(=O)N(CC(N)=O)C2CCCC2)cc(Cl)c1Cl", "effect": 12.52}